According to PubChem BioAssay AID743255 (National Center for Advancing Translational Sciences (NCATS), 2014):
Among all 390,000 compounds or so, about 910 (0.23%) were called active. Inconclusive results, whose numbers are uncertain, are shown with a selection of clear calls. Calls follow the shape of the dose curve; as a rule, active = well fitted inhibition curve with a large enough effect; inconclusive = small, poorly fitted or top-dose-only effect; inactive = no such curve, though single readings can be large or run the other way. A potency beside an inconclusive call is a rough fit, not a confirmed value.

Amino acid sequences for entries named in this document (tags omitted). A change or cut given only in a name is not applied to a line headed by its entry.
UniProt O94782: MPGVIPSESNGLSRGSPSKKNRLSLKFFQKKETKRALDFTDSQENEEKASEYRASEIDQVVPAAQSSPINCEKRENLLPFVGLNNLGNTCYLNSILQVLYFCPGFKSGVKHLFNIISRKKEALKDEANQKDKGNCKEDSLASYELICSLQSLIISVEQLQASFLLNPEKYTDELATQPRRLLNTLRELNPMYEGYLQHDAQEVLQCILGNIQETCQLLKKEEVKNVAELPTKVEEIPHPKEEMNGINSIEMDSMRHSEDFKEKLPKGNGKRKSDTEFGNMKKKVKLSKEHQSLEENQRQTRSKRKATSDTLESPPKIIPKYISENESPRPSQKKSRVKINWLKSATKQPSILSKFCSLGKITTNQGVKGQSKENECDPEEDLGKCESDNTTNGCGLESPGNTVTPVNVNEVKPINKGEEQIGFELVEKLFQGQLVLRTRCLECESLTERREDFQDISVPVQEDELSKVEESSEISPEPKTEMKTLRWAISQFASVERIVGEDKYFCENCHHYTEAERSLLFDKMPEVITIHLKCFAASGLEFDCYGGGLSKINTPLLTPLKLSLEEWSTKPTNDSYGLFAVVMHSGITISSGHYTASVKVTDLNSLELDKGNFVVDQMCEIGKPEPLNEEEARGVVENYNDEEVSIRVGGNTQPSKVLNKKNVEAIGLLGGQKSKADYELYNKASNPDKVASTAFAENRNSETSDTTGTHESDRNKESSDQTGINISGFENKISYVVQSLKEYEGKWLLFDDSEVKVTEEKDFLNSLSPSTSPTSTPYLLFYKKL

molecular target: Ubiquitin carboxyl-terminal hydrolase 1 (Homo sapiens) (UniProt O94782); assay: Inhibitors of USP1/UAF1: Primary Screen; conditions: recombinant USP1/UAF1, Ub-Rhodamine cleavage fluorescence; series mostly up to 57.1 µM; also: nearly all actives have a fitted effect of over 60% in size
Method in brief: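 Step one: compound is pinned into 1nM USP1/UAF1 in HEPES pH 7.8 buffer with TCEP. Step two: 15 min room-temperature incubation. Step three: Ub-Rho (150nM final) starts cleavage, tracked by fluorescence over six one-minute reads.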
Potency is read from the fitted curve at half-maximal effect.

| SMILES | Potency |
| --- | --- |
| COc1ccc(CN2C(=O)C(CC(=O)NCc3ccco3)CC(C(=O)N3CCOCC3)=C2C)cc1 (configuration not stated) | inconclusive: 0.355 µM [inhibitor, full curve] |
| CCc1ccc(N2C(=O)CS(=O)(=O)C23C(=O)N(Cc2ccccc2F)c2ccccc23)cc1 (configuration not stated) | inconclusive: 44.7 µM [inhibitor, partial curve] |
| CCNc1ccc(Br)cc(C(=O)/C=C/c2c(Cl)cccc2Cl)c1=O | inconclusive: 5.01 µM [inhibitor, partial curve] |
| COc1ccc2c(C)c(CCC(=O)NCc3ccc(OC)c(OC)c3)c(=O)oc2c1 | inconclusive: 0.447 µM [inhibitor, full curve, poor fit] |
| CC(C)NC(=O)c1sc2ncccc2c1-n1cccc1 | inconclusive: 10 µM [inhibitor, full curve, poor fit] |
| CCOC(=O)c1c(S(=O)(=O)N2CCCC(C)C2)c(C)n(C)c1C (configuration not stated) | inconclusive: 39.8 µM [inhibitor, partial curve] |
| Cc1ccccc1NC1=C/C(=N\S(=O)(=O)c2cccs2)c2ccccc2C1=O | active: 2.24 µM |
| CC(C)Cn1c(CN(Cc2ccccc2)Cc2ccccc2)nc2c1c(=O)n(C)c(=O)n2C | inconclusive: 50.1 µM [inhibitor, partial curve, poor fit] |
| CC(Sc1ccccc1)C(=O)Nc1cccc(N(C)S(C)(=O)=O)c1 (configuration not stated) | inconclusive: 3.55 µM [inhibitor, partial curve] |
| O=C(CCS(=O)(=O)c1nc(-c2cccs2)cc(C(F)(F)F)n1)Nc1cccc(O)c1 | inconclusive: 35.5 µM [inhibitor, partial curve, poor fit] |
| CCOc1ccc(-c2csc(/C(C#N)=C\c3ccc(O)c([N+](=O)[O-])c3)n2)cc1 | inconclusive: 44.7 µM [inhibitor, partial curve, poor fit] |
| O=C(c1ccc([N+](=O)[O-])cc1)N(Cc1ccc(Cl)cc1Cl)N1C(=O)CCCC1=O | inactive |
| O=C(O)C1=CC(c2ccc(Br)cc2)n2ncnc2N1 (configuration not stated) | inconclusive: 3.98 µM [inhibitor, full curve, poor fit] |
| O=C(Nc1ccc2nc(-c3ccco3)c(-c3ccco3)nc2c1)NC1CC1 | inconclusive: 35.5 µM [inhibitor, partial curve] |
| CC(=O)NNc1ncnc2c1cnn2-c1ccc(C)cc1 | inconclusive: 0.708 µM [inhibitor, full curve, poor fit] |
| O=C(Nc1ccccc1C(=O)O)c1cccc(NC(=O)c2ccccc2Br)c1 | inactive |
| Cc1onc(-c2c(F)cccc2Cl)c1C(=O)Nc1sc2c(c1C(N)=O)CCC2 | inactive |

Reprinted at random: 2 records from the list.

| SMILES | Potency |
| --- | --- |
| Cc1ccccc1NC1=C/C(=N\S(=O)(=O)c2cccs2)c2ccccc2C1=O | active: 2.24 µM |
| CC(C)Cn1c(CN(Cc2ccccc2)Cc2ccccc2)nc2c1c(=O)n(C)c(=O)n2C | inconclusive: 50.1 µM [inhibitor, partial curve, poor fit] |
